# Source: paper PMC11653668
# By UniProt entry, the sequences of proteins in these tests, tags left out. Where a name states a change or a piece, a line headed by the entry shows the natural chain unless it says otherwise. Residues count along the entry.
# UniProt Q921F2: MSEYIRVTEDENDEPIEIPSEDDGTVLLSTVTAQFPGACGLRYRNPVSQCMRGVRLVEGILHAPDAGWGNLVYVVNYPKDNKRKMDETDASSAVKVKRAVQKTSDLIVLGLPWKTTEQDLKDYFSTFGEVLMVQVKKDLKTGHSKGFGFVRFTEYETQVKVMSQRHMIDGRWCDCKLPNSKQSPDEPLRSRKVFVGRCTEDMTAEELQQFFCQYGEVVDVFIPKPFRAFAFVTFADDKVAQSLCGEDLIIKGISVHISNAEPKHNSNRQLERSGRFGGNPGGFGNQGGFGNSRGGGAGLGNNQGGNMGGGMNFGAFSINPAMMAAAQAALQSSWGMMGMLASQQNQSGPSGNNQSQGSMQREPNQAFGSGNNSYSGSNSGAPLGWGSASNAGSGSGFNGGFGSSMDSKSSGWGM
# UniProt Q15365: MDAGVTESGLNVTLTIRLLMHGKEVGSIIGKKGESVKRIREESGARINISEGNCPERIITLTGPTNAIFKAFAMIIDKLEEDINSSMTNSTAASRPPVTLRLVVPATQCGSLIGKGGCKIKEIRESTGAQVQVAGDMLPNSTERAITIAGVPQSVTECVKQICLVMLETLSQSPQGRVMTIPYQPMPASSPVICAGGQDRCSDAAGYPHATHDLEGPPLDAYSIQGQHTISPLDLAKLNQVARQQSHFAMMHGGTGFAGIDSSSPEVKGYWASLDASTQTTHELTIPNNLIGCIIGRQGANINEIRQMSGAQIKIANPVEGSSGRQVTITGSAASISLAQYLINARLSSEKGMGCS
# UniProt Q61990: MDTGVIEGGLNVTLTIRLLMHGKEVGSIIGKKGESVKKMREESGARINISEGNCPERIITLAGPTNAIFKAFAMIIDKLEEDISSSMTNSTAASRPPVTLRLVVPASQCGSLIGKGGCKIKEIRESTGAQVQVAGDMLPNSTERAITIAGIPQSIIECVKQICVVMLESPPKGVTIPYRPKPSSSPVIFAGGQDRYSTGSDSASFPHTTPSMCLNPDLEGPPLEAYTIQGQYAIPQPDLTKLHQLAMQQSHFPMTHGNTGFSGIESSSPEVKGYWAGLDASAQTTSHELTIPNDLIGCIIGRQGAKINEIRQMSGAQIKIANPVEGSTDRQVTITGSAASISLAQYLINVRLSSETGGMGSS
# UniProt P60335: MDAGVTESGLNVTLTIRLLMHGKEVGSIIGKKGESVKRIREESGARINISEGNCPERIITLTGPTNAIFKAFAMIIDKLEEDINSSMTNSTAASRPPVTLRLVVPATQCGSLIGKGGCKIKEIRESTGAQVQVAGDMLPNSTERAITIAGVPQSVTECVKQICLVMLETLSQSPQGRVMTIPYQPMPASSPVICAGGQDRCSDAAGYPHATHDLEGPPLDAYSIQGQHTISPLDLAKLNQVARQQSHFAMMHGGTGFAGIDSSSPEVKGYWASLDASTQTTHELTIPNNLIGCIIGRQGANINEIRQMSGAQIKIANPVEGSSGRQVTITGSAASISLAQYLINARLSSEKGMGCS
# UniProt Q15366, residues 13-365: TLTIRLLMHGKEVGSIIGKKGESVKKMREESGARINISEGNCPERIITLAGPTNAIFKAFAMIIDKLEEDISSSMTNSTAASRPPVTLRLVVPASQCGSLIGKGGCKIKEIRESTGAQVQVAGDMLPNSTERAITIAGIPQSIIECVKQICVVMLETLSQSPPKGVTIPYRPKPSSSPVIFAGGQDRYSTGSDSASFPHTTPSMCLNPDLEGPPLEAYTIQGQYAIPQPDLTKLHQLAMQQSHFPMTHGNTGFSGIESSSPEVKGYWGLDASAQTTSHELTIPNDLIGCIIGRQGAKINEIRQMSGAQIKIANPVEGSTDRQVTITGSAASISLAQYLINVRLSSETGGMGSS
# These are yes or no findings as the source states them, for the method shown. In cells and extracts the contact can be indirect. Some entries that bind do so weakly or less than the wild type. For some of these results: Sequences can lack the tags named with a protein.
# Experiments:
# [1] = biological target: TDP43 (endogenous, HEK293T) (human (endogenous in HEK293T)) (UniProt Q13148); assay: co-IP; endogenous IP from HEK293T lysate with anti-TDP43 antibody on Protein A Sepharose, 4 h at 4 °C; rabbit isotype IgG as control; western blot
# [2] = biological target: TDP43 (endogenous, mouse testis) (mouse (endogenous in testis)) (UniProt Q921F2); assay: co-IP; endogenous IP from mouse testis lysate with anti-TDP43 antibody on Protein A Sepharose, 4 h at 4 °C; western blot
# [3] = biological target: T1, NAT10 (endogenous, HEK293T) (human (endogenous in HEK293T)) (UniProt Q9H0A0); assay: co-IP; endogenous NAT10 precipitated with anti-NAT10 antibody in the RIP procedure from 293T cells of the siNC, siPCBP1/2 and siTDP43 groups; western blot of the precipitate
# T1 sequence: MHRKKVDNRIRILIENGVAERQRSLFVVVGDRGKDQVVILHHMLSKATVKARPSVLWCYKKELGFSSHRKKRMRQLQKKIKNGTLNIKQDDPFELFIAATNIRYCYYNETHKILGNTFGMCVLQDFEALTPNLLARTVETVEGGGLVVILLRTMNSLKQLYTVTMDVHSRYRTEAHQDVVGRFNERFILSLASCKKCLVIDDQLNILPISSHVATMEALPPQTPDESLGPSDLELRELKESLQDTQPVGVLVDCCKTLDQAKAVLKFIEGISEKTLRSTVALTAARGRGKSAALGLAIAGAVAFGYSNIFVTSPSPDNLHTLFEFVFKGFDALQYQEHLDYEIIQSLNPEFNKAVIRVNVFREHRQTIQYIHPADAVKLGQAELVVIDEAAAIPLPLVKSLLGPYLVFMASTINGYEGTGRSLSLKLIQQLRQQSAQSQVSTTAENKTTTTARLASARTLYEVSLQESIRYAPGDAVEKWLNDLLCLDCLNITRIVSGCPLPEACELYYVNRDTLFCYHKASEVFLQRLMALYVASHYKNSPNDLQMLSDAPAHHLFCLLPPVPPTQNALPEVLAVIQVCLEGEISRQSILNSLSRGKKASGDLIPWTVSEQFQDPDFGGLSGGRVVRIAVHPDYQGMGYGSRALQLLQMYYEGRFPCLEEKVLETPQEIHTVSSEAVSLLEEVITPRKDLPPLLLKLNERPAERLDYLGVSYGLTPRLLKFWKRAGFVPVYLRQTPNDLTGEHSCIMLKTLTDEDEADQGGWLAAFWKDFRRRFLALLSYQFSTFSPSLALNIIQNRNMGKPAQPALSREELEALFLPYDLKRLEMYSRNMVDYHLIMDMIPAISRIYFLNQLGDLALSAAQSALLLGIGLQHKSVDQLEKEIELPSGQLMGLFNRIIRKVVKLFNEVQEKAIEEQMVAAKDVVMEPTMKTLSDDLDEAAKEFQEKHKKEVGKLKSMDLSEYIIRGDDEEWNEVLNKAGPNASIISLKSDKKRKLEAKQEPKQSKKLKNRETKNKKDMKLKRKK
# [4] = biological target: T2, FLAG-tagged NAT10 (human) (UniProt Q9H0A0); assay: co-IP; HEK293T cells transfected for 48 h; lysis buffer 50 mM Tris-HCl pH 7.5, 150 mM NaCl, 1 mM EDTA, 1% Triton X-100, 1 mM PMSF; anti-FLAG affinity gel, 2 h at 4 °C; western blot; with and without RNase A treatment (Figure 1C)
# T2 sequence: T1 sequence
# [5] = biological target: TDP43 (as used with the truncated PCBP1 constructs, Figure S2E) (human) (UniProt Q13148); assay: co-IP; N-terminally truncated PCBP1 constructs tested with TDP43 (Figure S2E); bait and tags not given
substance,measurement,setting,value
"PCBP1 (endogenous, HEK293T) (from UniProt Q15365 1-356)",binding,[1],binds
"PCBP2 (endogenous, mouse testis) (from UniProt Q61990 1-362)",binding,[2],binds
"TDP43 (endogenous, HEK293T) (from UniProt Q13148 1-414)",binding,[3],binds
"PCBP1 (endogenous, mouse testis) (from UniProt P60335 1-356)",binding,[2],binds
HA-tagged TDP43 (from UniProt Q13148 1-414),binding,[4],binds
PCBP1^13–356 (from UniProt Q15365 13-356) (domain or fragment),binding,[4],binds
same,binding,[5],binds
PCBP1^76–356 (from UniProt Q15365 76-356) (domain or fragment),binding,[5],binds
PCBP1^1–96 (from UniProt Q15365 1-96) (domain or fragment),binding,[4],binds
PCBP2^13–365 (from UniProt Q15366 13-365) (domain or fragment),binding,[4],binds
